Assay results reported in PubChem BioAssay AID2685 (National Center for Advancing Translational Sciences (NCATS), 2010).
The other results are listed elsewhere or left out. Further columns of the screen follow, without active or inactive calls. The list favours compounds with an active or inconclusive main result. Words in brackets tell the shape of the fitted curve; partial curves, single points and poor fits give uncertain potencies.

Test: qHTS Assay for Lipid Storage Modulators in Drosophila S3 Cells;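 for cell number change: cells counted by Cell Tracker Red CMTPX staining in the red channel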
Details: BODIPY lipid droplet fluorescence, 18-24 h; for cell number change: measured here: cell count max response, cells fed with added oleic acid
Procedure, shortened: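 Drosophila S3 cells got compounds at several concentrations plus oleic acid (400 uM solution). Laser-scanning cytometry with 488 nm excitation read lipid droplets at 500-530 nm and cells at 575-640 nm. Percent activity was relative to 20 uM Triacsin C.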

[1] = measured here: lipid fluorescence (Fed channel) AC50, cells fed with added oleic acid
[2] = measured here: cell number channel AC50, cells fed with added oleic acid

SMILES | cell number change [%] | AC50 [1] | AC50 [2]
Cc1ccc([C@@H]2[C@@H]3C(=O)N(C)C(=O)[C@@H]3[C@]3(Cc4ccccc4)C(=O)N(Cc4ccccn4)CC(=O)N23)o1 | 17.5 |  | 
CCOC(=O)c1nnn(-c2nonc2N)c1CNc1ccccc1 | -14.8 | 2.31 µM [rising, single point] | 
Cc1cccc2cc(CN(CC3CCCO3)C(=O)c3ccco3)c(=O)[nH]c12 (stereo not given) | 17.5 | 1.3 µM [rising, full curve] | 
CC1=CC(=O)C(C(C)C)=C/C1=N/OS(=O)(=O)c1ccccc1 | -76.2 | 0.0259 µM [falling, full curve] | 0.058 µM [falling, full curve]
O=[N+]([O-])c1cc(/C=N/Nc2nc(N3CCCCC3)nc(N3CCCCC3)n2)ccc1O | 15.5 | 6.51 µM [rising, single point] | 
CC(=O)N(C)c1ccc(NC(=O)C(Sc2ccccc2)c2ccccc2)cc1 (stereo not given) | -24.1 |  | 0.103 µM [falling, full curve, poor fit]
CSc1ccc(/C=C/C(=O)OCC(=O)NC2CCS(=O)(=O)C2)cc1 (stereo not given) | -16 | 29.1 µM [falling, single point] | 
CCCOC1CCCN(C(=O)CCc2nnc(-c3ccc4c(c3)OCO4)o2)C1 (stereo not given) | 8.5 | 0.092 µM [falling, full curve] | 
CCNC(=S)N(Cc1cc2cccc(C)c2[nH]c1=O)C1CCCC1 | -6.62 |  | 
CNC(=O)N(O)C1N(/N=C/c2ccccc2F)C(=S)SC1(C)C (stereo not given) | -1.54 |  | 
COCCOC(=O)c1[nH]c2c(c1C)C(=O)CC(c1ccc(F)cc1)C2 (stereo not given) |  | 2.06 µM [rising, partial curve] | 0.92 µM [rising, single point]
Cc1cc2cc(CN(Cc3ccc4c(c3)OCO4)Cc3nnnn3C3CCCC3)c(=O)[nH]c2cc1C | -18.1 |  | 
CCN(CC)c1ccc(C(=S)N2CCN(c3ccccc3)CC2)cc1 | 31.6 |  | 11.6 µM [rising, partial curve]
Cc1ccc(S(=O)(=O)N2CCCCC2)cc1NC(=O)Nc1ccc(Cl)cc1Cl | 2.46 |  | 
Cc1c(C)n(Cc2ccc(Cl)cc2)c2ccc(C(=O)NCCCN3CCOCC3)cc12 |  | 6.51 µM [rising, single point] | 0.231 µM [rising, partial curve, poor fit]
CCc1c(C)sc(NC(=O)C2CC2)c1C(=O)OC(C)C |  | 1.64 µM [falling, partial curve] | 
CCNc1nc(Oc2ccc(=O)n(C)n2)nc(N2CCOCC2)n1 | 90.8 |  | 16.4 µM [rising, partial curve]
Cc1ccc(NC(=O)c2ccc(CSc3ncnc4nc[nH]c34)cc2)c(C)c1 | 20.7 | 29.1 µM [rising, single point] | 
Cc1ccccc1NC(=O)c1cccc(NC(=O)c2ccco2)c1 | -38.9 | 14.6 µM [falling, partial curve, poor fit] | 20.6 µM [falling, partial curve, poor fit]

An excerpt from further up, for reference:
SMILES | cell number change [%] | AC50 [1] | AC50 [2]
CCCOC1CCCN(C(=O)CCc2nnc(-c3ccc4c(c3)OCO4)o2)C1 (stereo not given) | 8.5 | 0.092 µM [falling, full curve] | 
CCNC(=S)N(Cc1cc2cccc(C)c2[nH]c1=O)C1CCCC1 | -6.62 |  | 
CNC(=O)N(O)C1N(/N=C/c2ccccc2F)C(=S)SC1(C)C (stereo not given) | -1.54 |  | 

(continued)

SMILES | cell number change [%] | AC50 [1] | AC50 [2]
COc1ccccc1NC(=O)c1oc2ccccc2c1NC(=O)c1ccco1 |  | 0.651 µM [rising, full curve] | 3.26 µM [rising, partial curve]
Cc1ccc(NC(=O)COC(=O)c2cc(-c3cccs3)nn2-c2ccccc2)cc1[N+](=O)[O-] |  | 29.1 µM [rising, single point] | 
CC(C)NC(=S)NC(=O)/C=C/c1cccc2ccccc12 | 32.6 | 20.6 µM [rising, single point] | 0.651 µM [rising, full curve, poor fit]
CC(=O)Nc1ccc(NC(=O)C2(C)CC2(Cl)Cl)cc1 (stereo not given) | -30.6 | 29.1 µM [falling, single point] | 2.59 µM [falling, full curve]
Cc1ccc(O)c(N/C=C/C(=O)c2ccc(F)cc2)c1 | -46.7 | 18.4 µM [falling, single point] | 
S=C(NCC1CCCO1)Nc1ccccc1Cl (stereo not given) | 0.627 |  | 
CC(Oc1ccc(Br)cc1)C(=O)N1CCN(c2ccccn2)CC1 (stereo not given) | -24.1 | 29.1 µM [rising, single point] | 
CCCCn1c(N)c(NCc2ccccc2OC)c(=O)[nH]c1=O | 51.9 |  | 0.00411 µM [rising, full curve, poor fit]
Cc1ccc(/C=N/NC(=O)CCCOc2ccc(Cl)cc2Cl)cc1 | -61.5 | 16.4 µM [falling, single point] | 20.6 µM [falling, single point]
Cc1cccn2cc(-c3ccc(S(=O)(=O)N4CCOCC4)cc3)nc12 | 8.16 |  | 0.00461 µM [rising, full curve, poor fit]
Cc1ccc(S(=O)(=O)N(C)C)cc1NC(=S)NCc1ccco1 | 12.2 | 0.517 µM [rising, full curve, poor fit] | 
O=S(=O)(c1ccccc1)[C@@]1(c2ccc(Br)cc2)C[C@@H]2ON=C(c3cccc(Br)c3)[C@@H]2C1 |  | 4.11 µM [rising, single point] | 
COC(=O)CN1CCN(C(=O)c2ccco2)CC1 | -10.5 | 1.16 µM [falling, full curve, poor fit] | 
Cc1ccc(Cl)cc1N1CCN(S(=O)(=O)c2cccc(S(=O)(=O)N3CCCC3)c2)CC1 | 33 | 6.51 µM [falling, single point] | 29.1 µM [rising, single point]
Fc1ccc(CN2CCCCCC2)c(F)c1 | -35.2 | 29.1 µM [falling, single point] | 29.1 µM [falling, single point]
COc1ccc(S(=O)(=O)Nc2ccc(S(=O)(=O)N(C)C)cc2)cc1[N+](=O)[O-] | 5.31 | 29.1 µM [falling, single point] | 
Cc1ccc2c(c1)/C(=C/c1ccccc1F)C(=O)N2 | -42.2 |  | 14.6 µM [falling, partial curve]
COc1cccc(NC(=O)CCc2c(C)nn(-c3ccc(N4CCOCC4)nn3)c2C)c1 | -2.14 | 5.8 µM [falling, full curve, poor fit] | 
Cc1ccc(-c2csc(NC(=O)CSc3nc(C)cc(=O)[nH]3)n2)cc1 | -42.4 | 29.1 µM [falling, single point] | 29.1 µM [falling, single point]

SMILES | cell number change [%] | AC50 [1] | AC50 [2]
COc1ccc(S(=O)(=O)N2CCCCC2)cc1NC(=O)c1ccc2c(c1)OCO2 | 22 | 4.11 µM [rising, partial curve, poor fit] | 
Cc1cccc(CC(=O)NCC(=O)NCc2cc(=O)n(C)c(=O)n2C)c1 | 20.6 | 8.2 µM [rising, partial curve] | 
CN1CCN(/C(=N\S(=O)(=O)c2ccc(F)cc2)c2ccccc2)CC1 | -63.1 | 6.51 µM [falling, single point] | 23.1 µM [falling, partial curve, poor fit]
Cc1ccc(C2CC(=O)NC(SCC(=O)OCc3ccccc3)=C2C#N)o1 (stereo not given) | -22.1 |  | 0.00461 µM [falling, full curve, poor fit]
COC(=O)c1ccc(C2C(C(=O)Nc3ccc(C)cc3C)=C(C)Nc3ncnn32)cc1 (stereo not given) | 12.9 | 0.206 µM [rising, full curve] | 0.146 µM [rising, full curve, poor fit]
CCOC(=O)/C=C1\SCC(=O)N1CC(=O)Nc1cccc(F)c1 | -35.1 | 1 µM [rising, partial curve] | 
CCn1c(N)nc2ccccc21 | -17 |  | 
COc1ccccc1NC(=O)c1ccc(NC(=O)CSc2n[nH]c(N)n2)cc1 | -7.04 | 0.651 µM [falling, single point] | 
N#Cc1nc(-c2cccs2)oc1NCCN1CCOCC1 | 23.9 |  | 0.146 µM [rising, full curve, poor fit]
O=c1oc(-c2ccc([N+](=O)[O-])cc2)nc2ccccc12 | 13.1 | 0.00461 µM [rising, full curve, poor fit] | 0.231 µM [rising, full curve, poor fit]
COc1ccc(-c2cc(C(=O)NN3CCOCC3)c3ccccc3n2)cc1OC | -3.31 |  | 
CC(C)Cn1c(N)c(C(=O)CSc2nnnn2C)c(=O)n(C)c1=O | 1.76 | 2.31 µM [rising, partial curve] | 
COCCNC(=O)/C(=C/c1ccccc1Cl)c1ccccc1 | -56.8 | 6.51 µM [rising, single point] | 29.1 µM [falling, single point]
CCOC(=O)c1sc(Nc2nc3cc4c(cc3s2)OCO4)cc1C | -48 | 18.4 µM [falling, single point] | 16.4 µM [falling, single point]
O=C(O)CCN(CCC(=O)O)S(=O)(=O)c1ccccc1 | -24.1 | 16.4 µM [falling, single point] | 
COc1ccc(N=C2NC(=O)/C(=C/C=C/c3ccccc3)S2)cc1 | 5.84 |  | 0.82 µM [rising, single point]
Cc1cc(CN(C)C(=O)c2cc(COc3ccc(C)c(C)c3)on2)on1 | -17 | 29.1 µM [falling, single point] | 
CCCNC(=O)c1onc(CSc2ccc(F)cc2)c1C(=O)NCCOC | 4.88 | 1.03 µM [falling, full curve] | 
O=C(/C=C\c1cn(-c2ccccc2)nc1-c1cccs1)N1CCOCC1 |  | 0.13 µM [rising, full curve, poor fit] | 
